No constants are given. Whether binding was seen depends on the method and setting. Binding seen in cells or lysates may run through a third protein. A result given as binding can be weak or reduced; the word gives no strength.

Chains of the proteins cited; added tags and fusions are not shown. Lines headed by an entry give the natural chain unless they say otherwise; changes in a name come on top.
UniProt P16356: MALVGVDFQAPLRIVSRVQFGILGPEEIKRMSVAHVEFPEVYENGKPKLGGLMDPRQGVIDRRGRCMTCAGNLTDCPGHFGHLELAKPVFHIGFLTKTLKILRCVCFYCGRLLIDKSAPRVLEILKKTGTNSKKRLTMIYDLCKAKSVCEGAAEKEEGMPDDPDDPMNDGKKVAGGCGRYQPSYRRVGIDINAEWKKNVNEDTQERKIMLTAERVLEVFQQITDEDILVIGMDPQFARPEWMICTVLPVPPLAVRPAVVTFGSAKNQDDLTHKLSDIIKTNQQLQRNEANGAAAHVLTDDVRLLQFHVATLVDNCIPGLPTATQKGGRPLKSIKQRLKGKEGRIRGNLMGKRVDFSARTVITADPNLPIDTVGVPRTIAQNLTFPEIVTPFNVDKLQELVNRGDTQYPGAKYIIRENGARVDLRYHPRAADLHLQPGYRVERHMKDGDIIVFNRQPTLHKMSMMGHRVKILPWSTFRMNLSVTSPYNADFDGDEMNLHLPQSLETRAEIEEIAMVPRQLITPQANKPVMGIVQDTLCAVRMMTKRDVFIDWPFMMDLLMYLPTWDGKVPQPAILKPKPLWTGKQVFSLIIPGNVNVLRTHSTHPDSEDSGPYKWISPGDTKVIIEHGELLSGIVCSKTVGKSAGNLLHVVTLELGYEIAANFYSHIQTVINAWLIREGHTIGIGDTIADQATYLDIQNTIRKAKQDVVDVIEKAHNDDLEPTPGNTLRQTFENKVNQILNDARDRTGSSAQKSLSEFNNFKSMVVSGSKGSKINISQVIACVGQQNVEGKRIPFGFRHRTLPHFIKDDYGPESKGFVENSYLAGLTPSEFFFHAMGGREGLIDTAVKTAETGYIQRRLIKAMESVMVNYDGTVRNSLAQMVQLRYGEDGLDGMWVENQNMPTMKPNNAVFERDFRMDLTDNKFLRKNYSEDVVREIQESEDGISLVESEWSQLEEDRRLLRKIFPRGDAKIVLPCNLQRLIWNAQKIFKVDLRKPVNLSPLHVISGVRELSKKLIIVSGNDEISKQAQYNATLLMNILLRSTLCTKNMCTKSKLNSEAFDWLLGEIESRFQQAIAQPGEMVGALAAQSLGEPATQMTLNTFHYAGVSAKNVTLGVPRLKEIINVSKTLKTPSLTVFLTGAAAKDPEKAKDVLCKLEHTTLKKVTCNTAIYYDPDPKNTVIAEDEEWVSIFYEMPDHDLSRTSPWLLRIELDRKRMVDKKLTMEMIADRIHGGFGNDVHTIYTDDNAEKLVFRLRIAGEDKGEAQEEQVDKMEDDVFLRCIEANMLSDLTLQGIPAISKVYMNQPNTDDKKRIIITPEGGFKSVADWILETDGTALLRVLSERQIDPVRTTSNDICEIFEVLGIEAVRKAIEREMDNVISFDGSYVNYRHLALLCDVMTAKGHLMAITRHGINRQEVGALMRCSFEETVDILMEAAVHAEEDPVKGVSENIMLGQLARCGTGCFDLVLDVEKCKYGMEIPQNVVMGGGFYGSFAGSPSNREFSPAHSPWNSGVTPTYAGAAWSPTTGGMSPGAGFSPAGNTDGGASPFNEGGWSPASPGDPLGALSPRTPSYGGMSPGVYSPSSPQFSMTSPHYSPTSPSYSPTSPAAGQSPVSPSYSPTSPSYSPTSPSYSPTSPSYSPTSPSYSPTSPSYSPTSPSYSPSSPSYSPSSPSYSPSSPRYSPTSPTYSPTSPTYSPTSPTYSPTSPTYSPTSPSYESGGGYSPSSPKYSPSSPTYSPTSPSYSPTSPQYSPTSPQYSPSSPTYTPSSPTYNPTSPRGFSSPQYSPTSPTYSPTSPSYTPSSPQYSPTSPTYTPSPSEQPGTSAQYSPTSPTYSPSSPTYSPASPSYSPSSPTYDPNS
UniProt Q10578: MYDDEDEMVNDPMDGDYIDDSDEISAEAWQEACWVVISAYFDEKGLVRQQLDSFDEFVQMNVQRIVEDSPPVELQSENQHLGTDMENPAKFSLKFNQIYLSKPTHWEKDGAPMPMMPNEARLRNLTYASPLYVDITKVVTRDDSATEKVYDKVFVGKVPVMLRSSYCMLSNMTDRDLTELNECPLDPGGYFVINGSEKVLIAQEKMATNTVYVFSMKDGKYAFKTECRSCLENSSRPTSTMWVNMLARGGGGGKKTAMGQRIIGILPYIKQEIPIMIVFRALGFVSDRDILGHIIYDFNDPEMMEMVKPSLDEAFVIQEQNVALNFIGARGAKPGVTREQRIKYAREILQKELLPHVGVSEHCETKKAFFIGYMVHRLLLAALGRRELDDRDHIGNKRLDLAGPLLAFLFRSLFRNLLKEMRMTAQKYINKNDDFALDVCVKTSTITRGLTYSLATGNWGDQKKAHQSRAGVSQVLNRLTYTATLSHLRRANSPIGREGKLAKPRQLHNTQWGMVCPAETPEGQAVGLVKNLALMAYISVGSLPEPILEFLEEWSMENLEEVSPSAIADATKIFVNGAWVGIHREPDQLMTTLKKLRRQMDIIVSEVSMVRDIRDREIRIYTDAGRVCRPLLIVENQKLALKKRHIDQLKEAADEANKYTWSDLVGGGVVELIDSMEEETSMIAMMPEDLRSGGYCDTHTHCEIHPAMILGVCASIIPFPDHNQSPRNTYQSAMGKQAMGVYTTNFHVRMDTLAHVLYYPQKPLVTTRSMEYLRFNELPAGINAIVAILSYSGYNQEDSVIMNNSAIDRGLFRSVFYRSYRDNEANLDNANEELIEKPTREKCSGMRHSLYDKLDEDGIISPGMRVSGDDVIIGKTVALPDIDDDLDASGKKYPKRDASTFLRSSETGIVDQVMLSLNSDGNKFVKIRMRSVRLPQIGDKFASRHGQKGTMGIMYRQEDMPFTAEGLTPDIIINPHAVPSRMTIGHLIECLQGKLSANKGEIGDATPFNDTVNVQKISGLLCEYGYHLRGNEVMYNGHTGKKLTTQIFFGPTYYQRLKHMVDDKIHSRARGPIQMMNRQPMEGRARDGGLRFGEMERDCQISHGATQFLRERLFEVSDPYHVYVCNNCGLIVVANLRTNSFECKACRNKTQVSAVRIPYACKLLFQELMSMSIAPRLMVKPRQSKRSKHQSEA
UniProt Q9GYM9: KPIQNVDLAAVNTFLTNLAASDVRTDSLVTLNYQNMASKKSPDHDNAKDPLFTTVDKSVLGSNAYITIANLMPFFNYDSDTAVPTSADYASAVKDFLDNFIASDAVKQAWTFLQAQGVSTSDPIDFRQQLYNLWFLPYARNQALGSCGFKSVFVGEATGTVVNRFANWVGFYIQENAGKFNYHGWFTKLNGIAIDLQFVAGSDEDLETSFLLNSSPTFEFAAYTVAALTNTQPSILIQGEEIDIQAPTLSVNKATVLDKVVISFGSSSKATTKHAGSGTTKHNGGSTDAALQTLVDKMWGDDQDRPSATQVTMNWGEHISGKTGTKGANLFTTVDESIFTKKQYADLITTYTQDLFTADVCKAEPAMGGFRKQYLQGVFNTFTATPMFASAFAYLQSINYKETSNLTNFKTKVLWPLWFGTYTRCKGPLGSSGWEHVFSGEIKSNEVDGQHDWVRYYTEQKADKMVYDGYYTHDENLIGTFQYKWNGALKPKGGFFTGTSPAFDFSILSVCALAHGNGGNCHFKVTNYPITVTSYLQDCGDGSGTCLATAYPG

What all share (experiment): co-IP; day 1 adult worm lysate in NP-40 buffer (150 mM NaCl, 50 mM Tris HCl pH 8.0, 0.1% NP-40), without RNase A (RNase inhibitor); IP with anti-Pol II 8WG16 (AMA-1), anti-POLR2B, anti-Histone H3 or anti-GFP, Dynabeads Protein A; Western blot
(In western blotting, separated proteins are transferred to a membrane and probed.)

Test [1] concerns the target AMA-1, the Pol II subunit A (C. elegans (endogenous in worms)) (UniProt P16356).
Test [2] concerns the target RPB-2 (Pol II subunit B) (C. elegans (endogenous in worms)) (UniProt Q10578).
Test [3] concerns the target ENDU-2::EGFP (C. elegans) (UniProt Q9GYM9).

For ENDU-2::EGFP (from UniProt Q9GYM9), the binding result in test [1] and in test [2] was “binds” in each case.

In the case of “AMA-1, the Pol II subunit A (from UniProt P16356 1-1856)”, the binding entry in test [3] is recorded as “binds”.
